Patent US20050009067A1, “Expression profile of pancreatic cancer” (priority 2003, published 2005)
Results are given in words; binding and its absence hold for the method and conditions named. Binding seen in cells or lysates may run through a third protein. Some results given as binding are weak or reduced against the parent protein; the word gives no strength.

The chains behind the UniProt entries cited, without tags or fusion partners. Residues count along the entry.
UniProt Q62151, residues 23-402: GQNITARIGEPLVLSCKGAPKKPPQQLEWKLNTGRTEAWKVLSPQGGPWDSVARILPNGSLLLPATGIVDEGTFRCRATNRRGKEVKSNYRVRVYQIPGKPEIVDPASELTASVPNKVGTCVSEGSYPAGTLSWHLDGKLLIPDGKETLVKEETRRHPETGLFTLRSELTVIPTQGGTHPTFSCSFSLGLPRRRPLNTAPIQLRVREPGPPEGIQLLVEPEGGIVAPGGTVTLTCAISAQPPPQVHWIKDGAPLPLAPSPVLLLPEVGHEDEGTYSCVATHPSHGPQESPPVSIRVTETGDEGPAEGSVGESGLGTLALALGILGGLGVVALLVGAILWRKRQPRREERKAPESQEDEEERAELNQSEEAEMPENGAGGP

Target: RAGE (endogenous, of NIH3T3 cells) (UniProt Q62151)
Test: co-immunoprecipitation from lysates of S100P expressing NIH3T3 cells with S100P antibody, blot for RAGE

B1: S100P expressed in NIH3T3 cells stably transfected with a full-length S100P cDNA in pcDNA3.1 (ligand, human, UniProt P25815 1-95, looked up)
chain: MTELETAMGMIIDVFSRYSGSEGSTQTLTKGELKVLMEKELPGFLQSGKDKDAVDKLLKDLDANGDAQVDFSEFIVFVAAITSACHKYFEKAGLK
With B1 the binding was “binds”.
